Reference: PubChem BioAssay AID504467 (National Center for Advancing Translational Sciences (NCATS), 2011)
Hit rate of the full screen: of about 330,000 compounds, about 7,700 (2.3%) were called active. This list was built around the results that the source calls inconclusive (neither active nor inactive); the mix of calls is not that of the screen. Calls come from the whole dose curve; as a rule, active = well fitted inhibition curve with a large enough effect; inconclusive = small, poorly fitted or top-dose-only effect, or effect the other way; inactive = flat fitted curve, though single readings scatter. Potencies beside an inconclusive call are fits to weak or partial responses and may not hold up.

Assay: qHTS screen for small molecules that inhibit ELG1-dependent DNA repair in human embryonic kidney (HEK293T) cells expressing luciferase-tagged ELG1; note: nearly all actives have a fitted effect of over 55% in size
Conditions: HEK293T ELG1-luciferase reporter, luminescence, 16 h, DNA damage induced by 5-fluorouridine; series mostly up to 46.1 µM
Summary of the method: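 Luminescence from the luciferase reporter, measured 30 min after ONE-Glo reagent at room temperature, was the read-out. Beforehand, 2,000 cells per well were exposed for 16 hr at 37 °C to 5-fluorouridine together with compound or vehicle.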
Potency is the fitted concentration of half-maximal effect.

Structure (SMILES) | Potency
COc1ccc2c(Cl)c(C(=O)N/N=C3\CCCC(=O)C3)sc2c1 | inconclusive: 18.3 µM [inhibitor, single point]
Cc1ccc(-c2nc3ccccc3s2)cc1S(=O)(=O)N1CCOCC1 | inconclusive: 29.1 µM [inhibitor, single point]
CCN1C/C(=C/c2cccc([N+](=O)[O-])c2)C(=O)/C(=C/c2cccc([N+](=O)[O-])c2)C1 | active: 2.59 µM
COc1ccccc1NC(=O)c1ccccc1Oc1ccccc1 | inactive
O=C1CCC(C(=O)OCC(=O)Nc2ccc(Cl)cc2C(F)(F)F)=NN1 | inconclusive: 0.58 µM [activator, single point]
CCOC(=O)CNc1c(-c2ccc(O)cc2)nc2ccccn12 | inactive
Cc1ccc(NC(=O)C(C)c2ccc(-c3ccccc3)c(F)c2)cc1 (centres undefined) | inconclusive: 7.31 µM [inhibitor, partial curve, poor fit]
COc1cccc(CNC(=O)C2CCN(c3ncnc4c3nc3n4CCCCC3)CC2)c1 | inactive
O=C(CSc1nnc(-c2ccco2)o1)c1ccccc1 | inconclusive: 20.6 µM [activator, partial curve]
O=C(N/N=C/c1c(F)cccc1Cl)c1cc(C2CC2)[nH]n1 | inconclusive: 13 µM [activator, partial curve]
CN(C)CCN(C(=O)c1ccc(N2C(=O)CCC2=O)cc1)c1nc2cc3c(cc2s1)OCCO3 | inconclusive: 16.4 µM [activator, partial curve]
Cc1cc(C)c(NC(=O)/C(C#N)=C/c2ccc(OCc3ccc(F)cc3)cc2)c(C)c1 | inconclusive: 11.6 µM [inhibitor, partial curve]
COc1ccc(NS(=O)(=O)c2cc(NC(=O)c3ccccc3F)ccc2N2CCCC2)cc1 | inconclusive: 14.6 µM [inhibitor, partial curve, poor fit]
CN(C)c1ccc(NC(=O)c2ccc(N3CCOCC3)nc2)cc1 | inconclusive: 9.2 µM [activator, partial curve]
O=C(CSc1ccc(S(=O)(=O)N2CCOCC2)cn1)Nc1ccc(F)c(F)c1 | inconclusive: 8.2 µM [inhibitor, partial curve, poor fit]
CCOc1nc(NC(=O)NS(=O)(=O)c2ccccc2F)nc(-c2ccccc2)n1 | inconclusive: 20.6 µM [activator, partial curve]
COC(=O)c1ccccc1NC(=O)CSc1nc(N)cc(N)n1 | inconclusive: 18.4 µM [activator, partial curve]
O=S(=O)(NCc1nnc2ccccn12)c1ccc(Cl)cc1 | inactive
COC(=O)CN1C(=O)N/C(=C/c2ccc(C)o2)C1=O | inconclusive: 0.0164 µM [activator, full curve, poor fit]
O=C(Cc1cccc2ccccc12)N/N=C/c1ccc2cccc(O)c2n1 | inactive
Cc1cc(C)c(-c2csc(NC(=O)COC(=O)c3ccc4c(c3)OCO4)n2)c(C)c1 | inactive
Cc1c(NC(=O)c2nn3c(C(F)(F)F)cc(-c4ccccc4)nc3c2Br)c(=O)n(-c2ccccc2)n1C | inconclusive: 29.1 µM [inhibitor, single point]

Structure (SMILES) | Potency
Cc1cc(=S)[nH]c2c(C)cccc12 | inactive
Cn1c(NC(=O)/C=C/c2ccccc2)cc(=O)n(C)c1=O | inconclusive: 16.4 µM [activator, partial curve]
CC(=O)n1c2ccccc2c2ccccc21 | inactive
CCOc1ccccc1NC(=O)N1CCCN(c2ncccc2C#N)CC1 | inconclusive: 20.6 µM [inhibitor, single point]
COc1ccc(NC(=O)CSc2cccc3cccnc23)c(OC)c1 | inactive
Cc1cc(=O)[nH]c(SCc2nc3ccccc3s2)n1 | inconclusive: 14.1 µM [activator, single point]
O=C(Cc1ccc(S(=O)(=O)N2CCOCC2)s1)N1CCN(c2ccc(C(F)(F)F)cc2[N+](=O)[O-])CC1 | inconclusive: 16.4 µM [inhibitor, single point]
O=C(COC(=O)c1ccco1)NC1CCCc2ccccc21 (centres undefined) | inactive
FC(F)(F)c1cc(-c2ccco2)nc(NCc2ccccc2)n1 | inactive
COc1ccc2nc(NS(=O)(=O)c3ccc(NC(C)=O)cc3)sc2c1 | inactive
NC(=O)NCC(c1ccccc1)C1CCCCC1 (centres undefined) | inactive
CCOC(=O)NC1(C(F)(F)F)C(=O)NC(C)=C1C#N (centres undefined) | inconclusive: 6.51 µM [inhibitor, single point]
COc1ccccc1NC(=O)c1cc(OC)c(OC)cc1[N+](=O)[O-] | inconclusive: 0.517 µM [activator, partial curve, poor fit]
COc1ccc(C(=O)NC(CC(C)C)C(=O)O)cc1 (centres undefined) | inconclusive: 5.17 µM [activator, partial curve, poor fit]
COc1cc(/C=N/Nc2nc(Nc3ccccc3)nc(N3CCOCC3)n2)ccc1OC(=O)c1ccco1 | inconclusive: 32.6 µM [inhibitor, single point]
O=C(O)c1cc(O)c2c(c1)[C@@H]([C@H]1c3cc(C(=O)O)cc(O)c3C(=O)c3c(O[C@@H]4O[C@H](CO)[C@@H](O)[C@H](O)[C@H]4O)cccc31)c1cccc(OC3O[C@H](CO)[C@@H](O)[C@H](O)[C@H]3O)c1C2=O (some centres undefined) | inactive
COc1ccc(C(=O)Nc2ccc(N3CCCC3)cc2)cc1 | inconclusive: 23.1 µM [activator, single point]
Cc1ccc2nc3c(cc(C(=O)NCCc4ccccc4)c(=N)n3CCN3CCOCC3)c(=O)n2c1 | inactive
Clc1ccccc1CSc1nnc(/C=C/c2ccccc2)o1 | inconclusive: 29.1 µM [activator, single point]
CCCCc1cc(=O)oc2cc(OCC(=O)NCCN3CCOCC3)c(Cl)cc12 | inactive
COc1ccc2c(=O)c(-c3ccc(C)cc3)c(-c3ccccc3)oc2c1 | inconclusive: 23.1 µM [inhibitor, partial curve, poor fit]
O=C(OCc1cc(=O)n2c(n1)sc1ccccc12)c1ccc(O)cc1 | inconclusive: 29.1 µM [activator, single point]

In the list so far, 2 have a COOH group.
Structure (SMILES) | Potency
COc1ccc(C(=O)NC(CC(C)C)C(=O)O)cc1 (centres undefined) | inconclusive: 5.17 µM [activator, partial curve, poor fit]
O=C(O)c1cc(O)c2c(c1)[C@@H]([C@H]1c3cc(C(=O)O)cc(O)c3C(=O)c3c(O[C@@H]4O[C@H](CO)[C@@H](O)[C@H](O)[C@H]4O)cccc31)c1cccc(OC3O[C@H](CO)[C@@H](O)[C@H](O)[C@H]3O)c1C2=O (some centres undefined) | inactive
